From paper PMC7077301
These are yes or no findings as the source states them, for the method shown. In cells and extracts the contact can be indirect. Some entries that bind do so weakly or less than the wild type. For part of these data: Sequences can lack the tags named with a protein.

By UniProt entry, the sequences of proteins in these tests, tags left out.
UniProt Q9BRX2: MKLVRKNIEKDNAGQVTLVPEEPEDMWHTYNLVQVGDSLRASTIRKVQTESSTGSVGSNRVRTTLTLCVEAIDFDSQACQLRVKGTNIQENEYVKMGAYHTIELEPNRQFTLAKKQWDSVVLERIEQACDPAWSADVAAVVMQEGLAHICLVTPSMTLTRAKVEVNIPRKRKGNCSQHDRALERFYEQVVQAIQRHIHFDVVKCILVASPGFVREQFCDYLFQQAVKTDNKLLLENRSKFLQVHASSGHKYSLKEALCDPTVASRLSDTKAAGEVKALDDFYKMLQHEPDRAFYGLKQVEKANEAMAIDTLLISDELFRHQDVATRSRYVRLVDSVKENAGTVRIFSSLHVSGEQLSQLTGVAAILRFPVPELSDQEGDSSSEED

T1: RNase L, two differently tagged copies co-expressed (5×Flag-RNase L and 5×Myc-RNase L), Q05823
T1 chain: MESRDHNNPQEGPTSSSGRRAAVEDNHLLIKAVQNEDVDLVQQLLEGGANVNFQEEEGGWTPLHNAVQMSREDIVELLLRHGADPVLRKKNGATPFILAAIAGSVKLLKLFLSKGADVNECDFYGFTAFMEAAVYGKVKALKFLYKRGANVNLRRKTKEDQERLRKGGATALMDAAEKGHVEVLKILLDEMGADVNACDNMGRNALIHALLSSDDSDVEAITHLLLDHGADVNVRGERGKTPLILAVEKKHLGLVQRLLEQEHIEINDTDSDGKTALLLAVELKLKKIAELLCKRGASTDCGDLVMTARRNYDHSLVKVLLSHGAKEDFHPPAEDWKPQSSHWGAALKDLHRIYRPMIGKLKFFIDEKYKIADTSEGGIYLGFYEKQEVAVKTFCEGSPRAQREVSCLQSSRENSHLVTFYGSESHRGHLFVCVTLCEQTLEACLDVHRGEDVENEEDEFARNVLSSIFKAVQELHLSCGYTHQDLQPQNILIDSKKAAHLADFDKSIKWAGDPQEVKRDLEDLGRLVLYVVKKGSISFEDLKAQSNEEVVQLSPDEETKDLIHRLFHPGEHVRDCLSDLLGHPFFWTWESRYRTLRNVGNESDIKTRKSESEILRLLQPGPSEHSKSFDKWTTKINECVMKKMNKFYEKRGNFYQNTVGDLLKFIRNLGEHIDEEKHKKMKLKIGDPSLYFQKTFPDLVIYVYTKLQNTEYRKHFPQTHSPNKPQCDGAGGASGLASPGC

B1: endogenous RNase L (protein, UniProt Q05823 1-741)
chain: T1 chain
B2: RNase L, two differently tagged copies co-expressed (5×Flag-RNase L and 5×Myc-RNase L), Q05823 1-741 (protein)
chain: T1 chain

Experiments:
[1] = molecular target: 5×Flag-Pelota (UniProt Q9BRX2); assay: co-IP; HeLa lysates in buffer B (100 mM NaCl, 1 mM EDTA, 0.5% Nonidet P-40, 0.25% sodium deoxycholate, 5 μg/mL RNase A, pH 7.5); anti-Flag M2 agarose, 10 °C, 1 h; western blotting
[2] = molecular target: T1, RNase L, two differently tagged copies …; assay: co-IP; HeLa lysates in buffer A (100 mM NaCl, 1 mM MgCl2, 0.5% Nonidet P-40, pH 7.5); anti-Flag M2 agarose; without 2-5A; with or without overexpressed ABCE1; conditions: remark: other sources report otherwise
[3] = molecular target: T1, RNase L, two differently tagged copies …; assay: co-IP; HeLa lysates in buffer A; anti-Flag M2 agarose; in the presence of 2-5A (0.2 μM); with or without overexpressed ABCE1; conditions: remark: other sources report otherwise

Row | Binder | binding [1] | binding [2] | binding [3]
1 | B1 | binds | – | –
2 | B2 | – | binds | binds
